Measurements reported in PubChem BioAssay AID1224830 (NIAID, 2016).

- Screen: 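Regulators of TLR4 signalling towards TNF-alpha in macrophage-like cells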 (primary screen)
- Cell system: human THP-1 monocytic leukaemia cells, TNF dual-luciferase reporter clone, PMA-differentiated to macrophage-like cells
- Knock-down reagent: siRNA pool against human genes, 50 nM
- Time to read-out: LPS for 4 h, given about 3 days after siRNA transfection
- Conditions: bacterial LPS (TLR4 ligand), 10 ng/ml
- Detection: 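Ratio of firefly to renilla light, scaled to the plate median and expressed as a robust z-score per replicate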
- Scale: TNF reporter robust z-score: higher = stronger TNF reporter response to LPS
- Call rule: 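a well is active when its z-score exceeds 2.8 or falls below -1.5; control wells carry no call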
This is one part, drawn at random, of about 18,000 reagents tested. Over the whole deposit, about 2,900 (16%) are marked active. 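Calls are made per well; low scores hint the gene aids the LPS response, high scores that it dampens it.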 Unmarked entries are inactive. Repeated entries: four replicate wells of each siRNA pool.

Depletion of SIRT1 came out at: TNF reporter robust z-score 3.35 (active).
For SIRT1, the entry reads TNF reporter robust z-score 1.97.
After knock-down of SIRT1, the screen gave TNF reporter robust z-score 1.96.
Silencing of SIRT1 came out at: TNF reporter robust z-score 1.73.
TBX10 gave TNF reporter robust z-score 0.94.
With knock-down of TBX10 the results were TNF reporter robust z-score 0.99.
Knock-down of TBX10 gave: TNF reporter robust z-score 1.26.
TBX10 gave TNF reporter robust z-score 0.23.
Depletion of RHEB resulted in: TNF reporter robust z-score -0.44.
For RHEB, the entry reads TNF reporter robust z-score -0.7.
Against RHEB, the values are TNF reporter robust z-score 0.2.
RHEB scored TNF reporter robust z-score 0.7.
KIF12 showed TNF reporter robust z-score 0.52.
Against KIF12 the deposit lists TNF reporter robust z-score 1.63.
With knock-down of KIF12, the screen gave TNF reporter robust z-score 0.07.
KIF12 showed TNF reporter robust z-score 1.22.
Against BTAF1 the deposit lists TNF reporter robust z-score 2.15.
Knock-down of BTAF1 gave: TNF reporter robust z-score 2.85 (active).
Silencing of BTAF1 gave: TNF reporter robust z-score 1.67.
Against BTAF1, the entry reads TNF reporter robust z-score 2.4.
Silencing of STAP2 resulted in: TNF reporter robust z-score -1.46.
Silencing of STAP2 resulted in: TNF reporter robust z-score -0.62.
After knock-down of STAP2, the record shows TNF reporter robust z-score -0.59.
Silencing of STAP2 gave: TNF reporter robust z-score -0.25.
ZNF324B gave TNF reporter robust z-score 0.59.
ZNF324B gave TNF reporter robust z-score -0.27.
Knock-down of ZNF324B gave: TNF reporter robust z-score 0.11.
Depletion of ZNF324B came out at: TNF reporter robust z-score -0.14.
Against CAPRIN2, the values are TNF reporter robust z-score -1.59 (active).
For CAPRIN2 the deposit lists TNF reporter robust z-score -1.6 (active).
With knock-down of CAPRIN2, the screen gave TNF reporter robust z-score -1.15.
For CAPRIN2 the deposit lists TNF reporter robust z-score -1.44.
With knock-down of SAP30, the record shows TNF reporter robust z-score -0.83.
Depletion of SAP30 came out at: TNF reporter robust z-score -0.16.
With knock-down of SAP30, the record shows TNF reporter robust z-score -0.49.
Against SAP30, the values are TNF reporter robust z-score -0.52.
NEK9 gave TNF reporter robust z-score -0.09.
Against NEK9 the deposit lists TNF reporter robust z-score -0.08.
Silencing of NEK9 came out at: TNF reporter robust z-score 0.18.
Knock-down of NEK9 resulted in: TNF reporter robust z-score -0.17.
SNRPD3 gave TNF reporter robust z-score -1.41.
With knock-down of SNRPD3, the record shows TNF reporter robust z-score -1.03.
Knock-down of SNRPD3 came out at: TNF reporter robust z-score -1.49.
Against SNRPD3 the deposit lists TNF reporter robust z-score -1.51 (active).
Silencing of ZNF284 gave: TNF reporter robust z-score 0.02.
ZNF284 showed TNF reporter robust z-score 0.67.
Silencing of ZNF284 came out at: TNF reporter robust z-score 0.39.
For ZNF284 the deposit lists TNF reporter robust z-score -0.03.
For TRIM35, the values are TNF reporter robust z-score -0.63.
TRIM35 gave TNF reporter robust z-score -0.79.
Against TRIM35 the deposit lists TNF reporter robust z-score -2.32 (active).
With knock-down of TRIM35, the screen gave TNF reporter robust z-score -1.53 (active).
DPPA5 gave TNF reporter robust z-score -0.35.
DPPA5 gave TNF reporter robust z-score 0.31.
Silencing of DPPA5 came out at: TNF reporter robust z-score -0.48.
With knock-down of DPPA5, the screen gave TNF reporter robust z-score -0.07.
After knock-down of FHOD3, the record shows TNF reporter robust z-score -0.12.
Against FHOD3, the values are TNF reporter robust z-score 0.1.
For FHOD3, the entry reads TNF reporter robust z-score 0.18.
Against FHOD3, the values are TNF reporter robust z-score 0.34.
